# Laboratory results published in patent US20240352022A1, “GROUP OF IMB-C5 SERIES COMPOUNDS HAVING ANTI-CORONAVIRUS ACTIVITY AND APPLICATION THEREOF” (priority 2021, published 2024).
# Some of these results come from one statement about several compounds together.
# Tests used:
# [1] = system: Huh7 cells; assay: CCK-8 cytotoxicity assay in Huh7 cells; assay type: cell-based, Human; conditions: 200 μM and less, 48 hours after administration
# Procedure: (§1) In order to determine the possible cytotoxicity of IMB-C5 and IMB-85, the CCK-8 assay was first used to detect the effect of the two compounds at different concentrations on viability of different cells 48 hours after administration.
# [2] = system: Huh7.5 cells; assay: CCK-8 cytotoxicity assay in Huh7.5 cells; assay type: cell-based, Human; conditions: 200 μM and less, 48 hours after administration
# Procedure: as §1
Compound,viability of cells vs control group [1],viability of cells vs control group [2]
COc1cccc(Cn2c(NCCO)nc3c2c(=O)n(C)c(=O)n3C)c1 [IMB-C5],above 95%,above 95%
"CCCCc1ccc(Cn2c(NCCO)nc3c2c(=O)n(C)c(=O)n3C)cc1 [IMB-85, 7-(4-butylbenzyl)-8-((2-hydroxyethyl)amino)-1,3-dimethyl-3,7-dihydro-1H-purine-2,6-dione]",above 95%,above 95%
